The text below walks through data of paper PMC3538754.

Results are given in words; binding and its absence hold for the method and conditions named. In cells and extracts the contact can be indirect. Binding calls can cover weak binding; strength is not graded here.

In the assay the target is E-cadherin (human (endogenous in MCF7)). Briefly: co-IP; MCF7 cells (control; HRG-β1 16 h; HRG-β1 16 h then SB202190 for the indicated time) lysed in 10 mM Tris-HCl pH 7.5, 150 mM NaCl, 5 mM EDTA, 1 mM PMSF; protein A sepharose bound to antibodies, washed three times with lysis buffer; detected by Western blotting. (A western blot detects proteins with antibodies after separation by electrophoresis.)

B1: p120 catenin (protein, UniProt O60716 1-968)
chain: MDDSEVESTASILASVKEQEAQFEKLTRALEEERRHVSAQLERVRVSPQDANPLMANGTLTRRHQNGRFVGDADLERQKFSDLKLNGPQDHSHLLYSTIPRMQEPGQIVETYTEEDPEGAMSVVSVETSDDGTTRRTETTVKKVVKTVTTRTVQPVAMGPDGLPVDASSVSNNYIQTLGRDFRKNGNGGPGPYVGQAGTATLPRNFHYPPDGYSRHYEDGYPGGSDNYGSLSRVTRIEERYRPSMEGYRAPSRQDVYGPQPQVRVGGSSVDLHRFHPEPYGLEDDQRSMGYDDLDYGMMSDYGTARRTGTPSDPRRRLRSYEDMIGEEVPSDQYYWAPLAQHERGSLASLDSLRKGGPPPPNWRQPELPEVIAMLGFRLDAVKSNAAAYLQHLCYRNDKVKTDVRKLKGIPVLVGLLDHPKKEVHLGACGALKNISFGRDQDNKIAIKNCDGVPALVRLLRKARDMDLTEVITGTLWNLSSHDSIKMEIVDHALHALTDEVIIPHSGWEREPNEDCKPRHIEWESVLTNTAGCLRNVSSERSEARRKLRECDGLVDALIFIVQAEIGQKDSDSKLVENCVCLLRNLSYQVHREIPQAERYQEAAPNVANNTGPHAASCFGAKKGKDEWFSRGKKPIEDPANDTVDFPKRTSPARGYELLFQPEVVRIYISLLKESKTPAILEASAGAIQNLCAGRWTYGRYIRSALRQEKALSAIADLLTNEHERVVKAASGALRNLAVDARNKELIGKHAIPNLVKNLPGGQQNSSWNFSEDTVISILNTINEVIAENLEAAKKLRETQGIEKLVLINKSGNRSEKEVRAAALVLQTIWGYKELRKPLEKEGWKKSDFQVNLNNASRSQSSHSYDDSTLPLIDRNQKSDKKPDREEIQMSNMGSNTKSLDNNYSTPNERGDHNRTLDRSGDLGDMEPLKGTTPLMQDEGQESLEEELDVLVLDDEGGQVSYPSMQKI
Turning to B1, the binding result is on record as “binds”.
